Here are results for 1 molecule from patent US20230203435A1.

The chains behind the UniProt entries cited, without tags or fusion partners. Residues count along the entry.
UniProt P10145, residues 28-99: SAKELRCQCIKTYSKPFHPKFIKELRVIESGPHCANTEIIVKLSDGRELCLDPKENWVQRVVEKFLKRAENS

This test addresses interleukin 8 (CXCL8) (Shenandoah Biotechnology, Inc.) (UniProt P10145). Briefly: ELISA on plate-coated interleukin 8 (CXCL8) (5 ug/mL), absorbance at 450 nm. In general terms: An ELISA detects its analyte on a solid surface through an enzyme-linked reagent.

These are yes or no findings as the source states them, for the method shown. Some results given as binding are weak or reduced against the parent protein; the word gives no strength.

B1: anti-IL-8 antibody (mouse/human chimeric antibody), light chain FR3 not substituted (antibody, human IgG1, kappa, V domains shown)
VH: EVKLVESGGGLVKPGGSLKLSCAASGFTFNNYAMSWVRQTPEKRLEWVASISSGGNTYYPDSVKGRFTLSRDNARNILYLQMSRLRSEDTAMYYCARDKLRLPNWYFDVWGAGTTVTVSS
VL: DIVLTQSPPSLAVSLGQRATISCKASQSVDYDGDSYMNWYQQKPGQPPKVLIYGASNLESGIPARFSGSGSGTDFTLNIYPVEEEDAATYYCQQSNEDPPTFGGGTKLEIKR
As to B1, the binding result is reported as “binds”.
